Measured values reported in article PMC7890977.

Target: T1, Syntaxin 6, endogenous in HEK-APP cells (human (endogenous in HEK293)) (UniProt O43752)
T1 sequence: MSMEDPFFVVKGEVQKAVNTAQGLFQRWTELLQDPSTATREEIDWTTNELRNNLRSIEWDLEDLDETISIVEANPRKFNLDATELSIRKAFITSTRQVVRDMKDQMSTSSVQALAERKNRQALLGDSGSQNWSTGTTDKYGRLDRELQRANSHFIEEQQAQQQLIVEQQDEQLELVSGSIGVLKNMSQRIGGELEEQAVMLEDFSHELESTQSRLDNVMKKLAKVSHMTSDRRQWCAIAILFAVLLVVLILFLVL
Assay: co-IP; 100 μg protein extract of HEK-APP cells (lysis buffer 25 mM Tris HCl pH 7.5, 150 mM NaCl, 0.5% Triton X-100); 1 μg mAb anti-CERTL (3A1-C1), anti-Aβ/APP 6E10 or anti-syntaxin 6 (isotype control), 1 h at room temperature; immune complexes brought down with anti-mouse secondary antibodies; Western blot with 6E10 and rabbit pAb anti-CERTs

With “Human amyloid precursor protein, APP695 isoform” the binding was “no binding”.

Results are given in words; binding and its absence hold for the method and conditions named. Binding seen in cells or lysates may run through a third protein.
